Test results as given in patent US12366572B2, “Activation of bioluminescence by structural complementation” (Promega Corporation, priority 2013, dated 2025).
Not every detail of the peptide structures is certain; ends, links or a residue may be inferred. Residues, ends and D or L forms follow the SMILES beside them.

Test system: NLpoly WT / NLpoly 5A2 / NLpoly11S
Assay: BRET spectral scans of NLpoly with fluorophore-conjugated NLpep (Examples 105, 109-111)
Type: biochemical
Conditions: luminescence wavelength scan, furimazine

SMILES | Energy transfer from NLPoly/NLPep complex to fluorophore
CC[C@H](C)[C@H](NC(=O)[C@H](CCCNC(=N)N)NC(=O)[C@H](CCC(=O)O)NC(=O)[C@H](CS)NC(=O)[C@H](CC(C)C)NC(=O)[C@H](CCCNC(=N)N)NC(=O)[C@H](Cc1c[nH]c2ccccc12)NC(=O)CNC(=O)[C@@H](NC(=O)[C@@H](NC(=O)CN)C(C)C)[C@@H](C)O)C(=O)N[C@@H](CC(C)C)C(=O)N[C@@H](C)C(=O)NCCCOCCOCCOCCCNC(=O)c1ccc2c(c1)C1(OC2=O)c2ccc(N(C)C)cc2Oc2cc(N(C)C)ccc21 [PBI-4877, H-GVTGWRLCERILA-PEG-TMR] (HELM PEPTIDE1{G.V.T.G.W.R.L.C.E.R.I.L.A.[CN(C)c1ccc2c(c1)Oc1cc(N(C)C)ccc1C21OC(=O)c2ccc(C(=O)NCCCOCCOCCOCCCN[*:1])cc21]}$$$$V2.0) | very efficient energy transfer
CC[C@H](C)[C@H](NC(=O)[C@H](CCCNC(=N)N)NC(=O)[C@H](CCC(=O)O)NC(=O)[C@H](CS)NC(=O)[C@H](CC(C)C)NC(=O)[C@H](CCCNC(=N)N)NC(=O)[C@H](Cc1c[nH]c2ccccc12)NC(=O)CNC(=O)[C@@H](NC(=O)[C@@H](NC(=O)CNC(=O)[C@H](CC(=O)O)NC(=O)[C@@H](NC(=O)[C@H](CCC(=O)O)NC(=O)[C@H](CC(=O)O)NC(=O)c1ccc(C(=O)O)c(C2=c3cc4c5c(c3Oc3c2cc2c6c3CCCN6CCCC2)CCC[N+]=5CCCC4)c1)C(C)C)C(C)C)[C@@H](C)O)C(=O)N[C@@H](CC(C)C)C(=O)N[C@@H](C)C(=O)O [PBI-5074, TOM-DEVDGVTGWRLCERILA-OH] (HELM PEPTIDE1{[O=C(O)c1ccc(C(=O)[*:2])cc1C1=c2cc3c4c(c2Oc2c1cc1c5c2CCCN5CCCC1)CCC[N+]=4CCCC3].D.E.V.D.G.V.T.G.W.R.L.C.E.R.I.L.A}$$$$V2.0) | energy transfer from the NLPoly/NLPep complex (donor) to TOM-dye (acceptor)
